Results taken from the supplement of paper PMC10849652.
This is one part of the list.

Sequences of proteins named here, by UniProt entry; tags and fusion partners are left off. A change or cut given only in a name is not applied to a line headed by its entry.
UniProt Q9Y6I9: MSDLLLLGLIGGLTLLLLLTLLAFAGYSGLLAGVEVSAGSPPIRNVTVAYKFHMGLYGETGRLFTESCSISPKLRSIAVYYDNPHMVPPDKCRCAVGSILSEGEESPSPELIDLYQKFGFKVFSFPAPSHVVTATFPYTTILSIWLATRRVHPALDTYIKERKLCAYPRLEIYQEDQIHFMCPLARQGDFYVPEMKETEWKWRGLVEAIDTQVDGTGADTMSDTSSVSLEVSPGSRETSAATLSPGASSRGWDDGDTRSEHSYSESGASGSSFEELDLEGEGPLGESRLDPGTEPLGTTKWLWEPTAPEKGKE
UniProt Q9C0B7: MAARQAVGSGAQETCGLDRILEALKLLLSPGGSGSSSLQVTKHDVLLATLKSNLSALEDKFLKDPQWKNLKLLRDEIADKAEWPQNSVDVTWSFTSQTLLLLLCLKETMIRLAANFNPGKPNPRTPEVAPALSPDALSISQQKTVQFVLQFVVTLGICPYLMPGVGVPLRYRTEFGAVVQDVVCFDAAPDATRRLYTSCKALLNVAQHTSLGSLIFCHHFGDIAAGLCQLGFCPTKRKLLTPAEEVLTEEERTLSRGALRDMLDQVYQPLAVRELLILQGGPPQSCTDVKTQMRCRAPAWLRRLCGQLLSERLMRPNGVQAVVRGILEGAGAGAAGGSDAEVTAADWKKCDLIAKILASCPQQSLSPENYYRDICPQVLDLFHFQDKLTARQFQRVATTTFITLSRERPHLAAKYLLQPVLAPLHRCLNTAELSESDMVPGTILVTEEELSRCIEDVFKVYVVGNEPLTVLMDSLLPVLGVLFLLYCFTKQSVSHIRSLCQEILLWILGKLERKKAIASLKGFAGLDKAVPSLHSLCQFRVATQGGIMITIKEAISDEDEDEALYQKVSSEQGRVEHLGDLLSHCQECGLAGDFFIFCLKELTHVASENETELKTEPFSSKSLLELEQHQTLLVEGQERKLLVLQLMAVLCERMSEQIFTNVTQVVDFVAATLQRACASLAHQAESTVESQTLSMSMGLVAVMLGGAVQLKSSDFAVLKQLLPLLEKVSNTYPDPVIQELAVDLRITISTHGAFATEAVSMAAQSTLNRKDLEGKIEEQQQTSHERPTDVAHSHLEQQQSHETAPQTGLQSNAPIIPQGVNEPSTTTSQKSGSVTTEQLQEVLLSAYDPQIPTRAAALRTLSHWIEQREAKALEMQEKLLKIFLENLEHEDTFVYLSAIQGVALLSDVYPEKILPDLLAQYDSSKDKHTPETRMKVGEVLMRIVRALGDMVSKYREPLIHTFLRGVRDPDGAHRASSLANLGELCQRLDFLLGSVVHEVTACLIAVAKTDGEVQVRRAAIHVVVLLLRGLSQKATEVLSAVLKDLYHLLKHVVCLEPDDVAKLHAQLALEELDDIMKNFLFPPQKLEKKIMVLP
UniProt Q8TC07: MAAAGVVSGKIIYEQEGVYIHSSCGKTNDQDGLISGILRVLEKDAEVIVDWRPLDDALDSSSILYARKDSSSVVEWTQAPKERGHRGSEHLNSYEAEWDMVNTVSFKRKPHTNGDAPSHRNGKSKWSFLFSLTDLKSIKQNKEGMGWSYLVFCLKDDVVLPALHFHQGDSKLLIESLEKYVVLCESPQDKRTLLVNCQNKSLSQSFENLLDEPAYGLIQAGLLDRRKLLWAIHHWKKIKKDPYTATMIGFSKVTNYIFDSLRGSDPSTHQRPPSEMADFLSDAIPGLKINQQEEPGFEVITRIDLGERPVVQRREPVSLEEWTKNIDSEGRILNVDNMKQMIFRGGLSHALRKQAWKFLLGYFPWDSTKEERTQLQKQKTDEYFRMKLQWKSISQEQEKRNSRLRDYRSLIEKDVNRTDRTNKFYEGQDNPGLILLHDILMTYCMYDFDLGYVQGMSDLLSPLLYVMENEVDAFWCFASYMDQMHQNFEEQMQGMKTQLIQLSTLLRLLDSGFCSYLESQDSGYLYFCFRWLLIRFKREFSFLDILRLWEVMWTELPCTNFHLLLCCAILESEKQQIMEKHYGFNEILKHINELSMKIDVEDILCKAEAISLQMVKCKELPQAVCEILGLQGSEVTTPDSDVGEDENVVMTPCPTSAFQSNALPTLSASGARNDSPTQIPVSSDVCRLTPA
UniProt Q9UPU7: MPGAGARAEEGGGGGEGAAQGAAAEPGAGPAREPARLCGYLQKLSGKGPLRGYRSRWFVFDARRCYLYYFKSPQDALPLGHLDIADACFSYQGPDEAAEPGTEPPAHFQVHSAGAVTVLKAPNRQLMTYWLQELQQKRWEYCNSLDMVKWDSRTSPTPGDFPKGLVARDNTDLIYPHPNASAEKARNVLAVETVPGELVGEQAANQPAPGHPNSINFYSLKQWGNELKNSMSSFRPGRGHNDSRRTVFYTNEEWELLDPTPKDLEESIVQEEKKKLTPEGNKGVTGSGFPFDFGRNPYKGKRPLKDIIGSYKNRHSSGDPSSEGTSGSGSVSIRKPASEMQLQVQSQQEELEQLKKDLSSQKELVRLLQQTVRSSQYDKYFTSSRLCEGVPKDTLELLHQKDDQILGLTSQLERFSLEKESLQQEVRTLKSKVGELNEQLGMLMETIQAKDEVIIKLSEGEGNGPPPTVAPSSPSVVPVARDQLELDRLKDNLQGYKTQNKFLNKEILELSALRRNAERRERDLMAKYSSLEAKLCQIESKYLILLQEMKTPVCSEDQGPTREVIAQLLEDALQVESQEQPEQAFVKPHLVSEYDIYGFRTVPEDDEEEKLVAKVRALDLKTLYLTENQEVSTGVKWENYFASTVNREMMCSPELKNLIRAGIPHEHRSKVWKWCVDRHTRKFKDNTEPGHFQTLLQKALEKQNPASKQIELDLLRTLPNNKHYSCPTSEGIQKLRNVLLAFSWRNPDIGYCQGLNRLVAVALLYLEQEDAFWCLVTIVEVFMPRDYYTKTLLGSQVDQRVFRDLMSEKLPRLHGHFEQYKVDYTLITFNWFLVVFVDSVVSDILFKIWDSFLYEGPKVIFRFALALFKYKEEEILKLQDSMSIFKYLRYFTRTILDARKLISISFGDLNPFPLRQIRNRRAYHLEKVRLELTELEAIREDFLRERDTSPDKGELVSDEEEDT
UniProt Q9Y6J9: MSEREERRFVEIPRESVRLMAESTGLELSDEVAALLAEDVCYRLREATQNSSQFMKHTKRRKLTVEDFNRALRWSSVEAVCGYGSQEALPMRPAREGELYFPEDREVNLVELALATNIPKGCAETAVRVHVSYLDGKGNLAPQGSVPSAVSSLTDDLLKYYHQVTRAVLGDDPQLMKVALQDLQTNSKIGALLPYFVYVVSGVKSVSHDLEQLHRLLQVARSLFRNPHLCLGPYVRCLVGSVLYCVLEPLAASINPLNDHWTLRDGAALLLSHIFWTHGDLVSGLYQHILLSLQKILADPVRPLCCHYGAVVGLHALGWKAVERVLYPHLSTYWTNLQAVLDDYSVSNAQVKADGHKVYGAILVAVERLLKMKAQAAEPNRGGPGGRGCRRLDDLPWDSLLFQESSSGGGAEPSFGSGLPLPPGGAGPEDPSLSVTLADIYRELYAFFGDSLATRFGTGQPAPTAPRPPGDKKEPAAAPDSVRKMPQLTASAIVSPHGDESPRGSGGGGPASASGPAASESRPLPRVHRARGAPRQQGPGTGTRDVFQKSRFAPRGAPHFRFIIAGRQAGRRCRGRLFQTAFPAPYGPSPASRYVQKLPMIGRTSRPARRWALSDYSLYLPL
UniProt Q7L7X3: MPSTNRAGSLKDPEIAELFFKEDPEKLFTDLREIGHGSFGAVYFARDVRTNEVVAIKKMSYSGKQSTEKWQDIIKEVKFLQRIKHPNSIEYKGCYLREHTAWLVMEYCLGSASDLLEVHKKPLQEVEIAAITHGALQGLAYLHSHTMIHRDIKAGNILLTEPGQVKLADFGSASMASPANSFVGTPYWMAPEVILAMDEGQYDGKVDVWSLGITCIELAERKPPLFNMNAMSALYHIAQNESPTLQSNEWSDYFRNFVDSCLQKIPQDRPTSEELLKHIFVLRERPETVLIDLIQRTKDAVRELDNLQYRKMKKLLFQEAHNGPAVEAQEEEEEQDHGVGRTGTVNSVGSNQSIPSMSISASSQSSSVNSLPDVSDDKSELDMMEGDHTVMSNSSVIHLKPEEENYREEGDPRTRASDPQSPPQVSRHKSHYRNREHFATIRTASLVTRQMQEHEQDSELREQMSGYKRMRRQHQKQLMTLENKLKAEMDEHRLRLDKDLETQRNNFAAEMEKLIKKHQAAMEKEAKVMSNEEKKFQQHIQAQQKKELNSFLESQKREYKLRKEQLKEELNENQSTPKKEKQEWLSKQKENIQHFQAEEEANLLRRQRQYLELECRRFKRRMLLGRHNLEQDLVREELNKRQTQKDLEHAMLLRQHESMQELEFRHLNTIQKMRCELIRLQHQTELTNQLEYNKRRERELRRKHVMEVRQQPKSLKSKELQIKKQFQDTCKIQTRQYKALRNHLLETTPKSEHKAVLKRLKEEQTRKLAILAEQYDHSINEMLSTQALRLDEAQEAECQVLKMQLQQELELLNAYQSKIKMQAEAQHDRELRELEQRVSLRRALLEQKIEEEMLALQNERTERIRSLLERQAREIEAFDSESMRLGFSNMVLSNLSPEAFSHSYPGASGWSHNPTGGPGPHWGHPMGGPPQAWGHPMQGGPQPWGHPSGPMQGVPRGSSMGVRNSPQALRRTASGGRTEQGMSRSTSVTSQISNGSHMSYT
UniProt Q9NU19: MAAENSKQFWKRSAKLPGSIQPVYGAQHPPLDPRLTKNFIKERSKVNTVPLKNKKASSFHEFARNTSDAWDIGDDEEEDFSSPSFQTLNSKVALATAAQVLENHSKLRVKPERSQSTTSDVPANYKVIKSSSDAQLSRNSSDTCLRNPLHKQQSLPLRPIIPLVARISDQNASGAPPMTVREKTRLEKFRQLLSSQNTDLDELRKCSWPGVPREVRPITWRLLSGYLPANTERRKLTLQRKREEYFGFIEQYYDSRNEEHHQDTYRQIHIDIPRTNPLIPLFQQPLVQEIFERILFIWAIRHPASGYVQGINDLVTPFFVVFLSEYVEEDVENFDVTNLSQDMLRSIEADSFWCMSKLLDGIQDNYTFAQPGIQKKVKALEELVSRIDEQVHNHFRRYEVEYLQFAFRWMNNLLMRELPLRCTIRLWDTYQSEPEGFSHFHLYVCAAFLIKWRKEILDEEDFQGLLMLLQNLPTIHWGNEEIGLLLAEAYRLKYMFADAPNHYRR
UniProt Q9BXI6: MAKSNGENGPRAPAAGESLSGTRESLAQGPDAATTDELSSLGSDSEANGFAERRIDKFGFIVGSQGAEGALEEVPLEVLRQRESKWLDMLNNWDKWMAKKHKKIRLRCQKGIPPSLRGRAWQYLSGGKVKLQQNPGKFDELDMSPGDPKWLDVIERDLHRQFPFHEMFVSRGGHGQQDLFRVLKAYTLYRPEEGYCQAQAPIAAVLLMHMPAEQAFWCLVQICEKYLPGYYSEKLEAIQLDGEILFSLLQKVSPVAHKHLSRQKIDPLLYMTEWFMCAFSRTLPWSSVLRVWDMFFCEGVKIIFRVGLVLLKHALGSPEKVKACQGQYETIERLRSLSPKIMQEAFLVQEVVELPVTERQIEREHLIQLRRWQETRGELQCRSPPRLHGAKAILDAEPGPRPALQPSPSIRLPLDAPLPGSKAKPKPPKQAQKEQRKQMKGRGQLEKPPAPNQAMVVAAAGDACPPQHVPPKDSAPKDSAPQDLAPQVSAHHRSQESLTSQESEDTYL
UniProt Q9NZ01: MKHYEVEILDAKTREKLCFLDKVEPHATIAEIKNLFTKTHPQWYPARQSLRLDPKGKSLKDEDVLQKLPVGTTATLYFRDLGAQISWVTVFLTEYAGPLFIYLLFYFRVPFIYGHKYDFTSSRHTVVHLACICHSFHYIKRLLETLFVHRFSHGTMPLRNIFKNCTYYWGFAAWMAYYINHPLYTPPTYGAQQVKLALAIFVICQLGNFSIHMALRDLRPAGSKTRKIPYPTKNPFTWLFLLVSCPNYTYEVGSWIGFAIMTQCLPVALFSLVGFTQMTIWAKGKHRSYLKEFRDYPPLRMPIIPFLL
UniProt Q15813: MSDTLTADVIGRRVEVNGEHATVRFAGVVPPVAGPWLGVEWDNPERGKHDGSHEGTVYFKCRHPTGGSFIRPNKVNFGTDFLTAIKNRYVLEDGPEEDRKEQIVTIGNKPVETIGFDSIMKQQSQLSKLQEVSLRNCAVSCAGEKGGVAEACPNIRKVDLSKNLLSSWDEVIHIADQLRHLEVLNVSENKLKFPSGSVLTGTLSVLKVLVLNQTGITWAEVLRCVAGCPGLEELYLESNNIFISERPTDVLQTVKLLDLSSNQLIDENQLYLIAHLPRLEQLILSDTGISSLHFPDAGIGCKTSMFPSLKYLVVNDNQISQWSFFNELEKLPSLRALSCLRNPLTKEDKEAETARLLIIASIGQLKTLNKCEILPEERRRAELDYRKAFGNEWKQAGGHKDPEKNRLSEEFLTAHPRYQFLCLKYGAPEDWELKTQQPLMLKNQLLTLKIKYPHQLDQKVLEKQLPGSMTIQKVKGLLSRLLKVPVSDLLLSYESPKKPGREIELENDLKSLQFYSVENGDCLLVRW

compound: Cc1ccc(NC(=O)c2ccc(CN3CC[C@H](N(C)C)C3)c(C(F)(F)F)c2)cc1Nc1nccc(-c2cncnc2)n1 [bafetinib]; experiment: log2 fold change, soluble protein after heating vs DMSO (PISA); higher = thermal stabilisation; K562 lysate, 10 uM; active = over 0.2 and 3.5 SD of the protein, either way, in both replicates (recomputed)
Outline: (§1)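 Log-two fold change in thermal stability relative to solvent controls is reported from duplicates. For each sample, crude K562 extract from dounce-homogenised pellets in PBS pH 7.4 with 1 mM MgCl2, at 1 mg/mL protein, was treated with 10 μM compound for 30 min. Aliquots heated for 3 min across 48°C-58°C were pooled, brought to 0.5% NP-40 at 4°C and cleared at 21,000xg for 90 min. The supernatant was quantified by TMTpro 16plex LC-MS/MS with channel sums equalised.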

log2 fold change, inactive:
TBC1D13 (UniProt Q9NVG8) -0.018
TBC1D2 (UniProt Q9BYX2) 0.12
TEX264 (UniProt Q9Y6I9) 0.176
TANGO6 (UniProt Q9C0B7) -0.064
TAOK3 (UniProt Q9H2K8) -0.074
TANK (UniProt Q92844) 0.023
TBC1D15 isoform 3 (UniProt Q8TC07) -0.038
TEX10 (UniProt Q9NXF1) 0.142
TBC1D20 isoform 3 (UniProt Q96BZ9) -0.303
TBC1D2B (UniProt Q9UPU7) -0.057
TAF6L (UniProt Q9Y6J9) -0.009
TAOK1 (UniProt Q7L7X3) -0.019
TBP (UniProt P20226) -0.043
TARS2 (UniProt Q9BW92) 0.034
TERF2 (UniProt Q15554) -0.057
TBCK (UniProt Q8TEA7) 0.025
TCEAL4 isoform 2 (UniProt Q96EI5) 0.006
TBC1D22B (UniProt Q9NU19) -0.088
TBC1D8B (UniProt Q0IIM8) 0.03
TBC1D10A (UniProt Q9BXI6) -0.118
TFIP11 (UniProt Q9UBB9) -0.114
TFDP1 (UniProt Q14186) -0.034
TEPSIN, A0A1B0GV70 0.034
TESC (UniProt Q96BS2) 0.048
TECR (UniProt Q9NZ01) -0.049
TET1 (UniProt Q8NFU7) -0.209
TFRC (UniProt P02786) -0.022
TBCE (UniProt Q15813) 0.033
TAF8 isoform 2 (UniProt Q7Z7C8) -0.115
TBCC (UniProt Q15814) 0.035
TAF9 (UniProt Q16594) 0.018
TAF9B (UniProt Q9HBM6) 0.341
TBL3 (UniProt Q12788) -0.019

compound: Cc1cccc(CC(=O)N2CCc3c2ccc(-c2cn(C)c4ncnc(N)c24)c3F)n1; experiment: as above
Outline: as §1

log2 fold change, inactive:
TBC1D13 (UniProt Q9NVG8) 0.03
TBC1D2 (UniProt Q9BYX2) 0.022
TEX264 (UniProt Q9Y6I9) -0.083
TANGO6 (UniProt Q9C0B7) 0.115
TAOK3 (UniProt Q9H2K8) -0.126
TANK (UniProt Q92844) -0.162
TBC1D15 isoform 3 (UniProt Q8TC07) -0.012
TEX10 (UniProt Q9NXF1) 0.095
TBC1D20 isoform 3 (UniProt Q96BZ9) 0.025
TBC1D2B (UniProt Q9UPU7) 0.052
TAF6L (UniProt Q9Y6J9) 0.028
TAOK1 (UniProt Q7L7X3) 0.006
TBP (UniProt P20226) 0.105
TARS2 (UniProt Q9BW92) 0.035
TERF2 (UniProt Q15554) 0.022
TBCK (UniProt Q8TEA7) -0.04
TCEAL4 isoform 2 (UniProt Q96EI5) 0.079
TBC1D22B (UniProt Q9NU19) 0.038
TBC1D8B (UniProt Q0IIM8) 0.097
TBC1D10A (UniProt Q9BXI6) 0.01
TFIP11 (UniProt Q9UBB9) 0.06
TFDP1 (UniProt Q14186) -0.003
TEPSIN, A0A1B0GV70 0.041
TESC (UniProt Q96BS2) 0.037
TECR (UniProt Q9NZ01) 0.015
TET1 (UniProt Q8NFU7) 0.61
TFRC (UniProt P02786) -0.002
TBCE (UniProt Q15813) 0.039
TAF8 isoform 2 (UniProt Q7Z7C8) 0.072
TBCC (UniProt Q15814) -0.003
TAF9 (UniProt Q16594) -0.057
TAF9B (UniProt Q9HBM6) -0.113
TBL3 (UniProt Q12788) 0.04

compound: Cc1cn(-c2cc(NC(=O)c3ccc(C)c(Nc4nccc(-c5cccnc5)n4)c3)cc(C(F)(F)F)c2)cn1 [nilotinib]; experiment: as above
Outline: as §1

log2 fold change, inactive:
TBC1D13 (UniProt Q9NVG8) 0.023
TBC1D2 (UniProt Q9BYX2) -0.004
TEX264 (UniProt Q9Y6I9) 0.085
TANGO6 (UniProt Q9C0B7) 0.042
TAOK3 (UniProt Q9H2K8) -0.025
TANK (UniProt Q92844) -0.067
TBC1D15 isoform 3 (UniProt Q8TC07) -0.021
TEX10 (UniProt Q9NXF1) -0.148
TBC1D2B (UniProt Q9UPU7) -0.019
TAF6L (UniProt Q9Y6J9) -0.023
TAOK1 (UniProt Q7L7X3) -0.016
TBP (UniProt P20226) -0.035
TARS2 (UniProt Q9BW92) 0.198
TERF2 (UniProt Q15554) 0.089
TBCK (UniProt Q8TEA7) 0.115
TBC1D22B (UniProt Q9NU19) 0.02
TBC1D8B (UniProt Q0IIM8) 0.021
TBC1D10A (UniProt Q9BXI6) -0.056
TFIP11 (UniProt Q9UBB9) 0.004
TFDP1 (UniProt Q14186) 0.071
TEPSIN, A0A1B0GV70 0.03
TESC (UniProt Q96BS2) 0.031
TECR (UniProt Q9NZ01) -0.06
TET1 (UniProt Q8NFU7) 0.225
TFRC (UniProt P02786) 0.033
TBCE (UniProt Q15813) -0.001
TAF8 isoform 2 (UniProt Q7Z7C8) -0.044
TBCC (UniProt Q15814) -0.022
TAF9 (UniProt Q16594) -0.043
TBL3 (UniProt Q12788) -0.009
